Record: PubChem BioAssay AID1053208 (Peter MacCallum Cancer Centre, 2014)
This is a random part of about 17,000 deposited reagents. 788 of all reagents (4.7%) count as active. 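Calls rest on z-score classes alone; an extra cut-off of viability at most 70% of control was not applied to them.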 Unmarked entries are inactive. Further read-outs or replicates are left out here. No sequences are given here.

- Purpose: 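Genes whose silencing cuts survival of bone tumour cells only with doxorubicin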 (primary screen)
- Cells: mouse osteosarcoma cells, early-passage culture from an engineered mouse model of fibroblastic bone tumour
- Reagent: siRNA pool against mouse genes, 40 nM
- Time to read-out: about 120 h (48 h before drug, then 72 h with drug)
- Challenge: doxorubicin 100 nM for 72 h, roughly 30-40% inhibitory dose
- Detection: 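Viability read as ATP luminescence after 72 h of 100 nM doxorubicin or none, duplicate wells averaged, scaled to non-targeting siRNA, then expressed as robust z-scores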
- Direction: viability z-score with doxorubicin: higher = more viable cells under doxorubicin; viability z-score without drug: higher = more viable cells with knock-down alone
- Hit rule: 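a pool counts as active when its viability z-score with doxorubicin is -2 or below and its z-score without drug lies between -2 and 2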

| target gene | combined z-score class | viability z-score with doxorubicin | viability z-score without drug |
| --- | --- | --- | --- |
| Acsl6 (acyl-CoA synthetase long-chain family member 6) | no change with or without drug | -0.9 | -0.34 |
| Ftmt (ferritin mitochondrial) | high cell count without drug only | -1.35 | 2.87 |
| Niban2 (niban apoptosis regulator 2) | no change with or without drug | -1.12 | -0.34 |
| Haus6 (HAUS augmin-like complex, subunit 6) | no change with or without drug | -0.67 | -1.85 |
| Bmp15 (bone morphogenetic protein 15) | no change with or without drug | 0.67 | -0.84 |
| Cct6a (chaperonin containing TCP1 subunit 6A) | low cell count without drug only | -0.22 | -2.19 |
| Trim23 (tripartite motif-containing 23) | no change with or without drug | -0.9 | -0.17 |
| Pigs (phosphatidylinositol glycan anchor biosynthesis, class S) | no change with or without drug | 0.22 | 1.85 |
| Chchd10 (coiled-coil-helix-coiled-coil-helix domain containing 10) | no change with or without drug | 1.12 | 0.84 |
| Mcm5 (minichromosome maintenance complex component 5) | no change with or without drug | -0.34 | 0 |
| Slc20a1 | no change with or without drug | -1.01 | 0.17 |
| Sez6l2 (seizure related 6 homolog like 2) | no change with or without drug | 0.11 | 0.51 |
| Pced1a (PC-esterase domain containing 1A) | no change with or without drug | 0.34 | -0.84 |
| Tada1 (transcriptional adaptor 1) | no change with or without drug | 0.67 | 0.84 |
| Or13a17 (olfactory receptor family 13 subfamily A member 17) | no change with or without drug | -1.57 | -0.51 |
| Il7r (interleukin 7 receptor) | no change with or without drug | 0 | -0.51 |
| Ccdc126 (coiled-coil domain containing 126) | no change with or without drug | 0.9 | 0.84 |
| Atp2a1 (ATPase, Ca++ transporting, cardiac muscle, fast twitch 1) | no change with or without drug | -0.79 | -0.84 |
| Tlr13 (toll-like receptor 13) | no change with or without drug | 0.67 | -0.51 |
| Art2a (ADP-ribosyltransferase 2a) | no change with or without drug | 0.9 | -0.51 |
| Gfra1 | no change with or without drug | 0.22 | -0.51 |
| Esco2 | no change with or without drug | -0.67 | 0.17 |
| Hes7 (hes family bHLH transcription factor 7) | no change with or without drug | -0.9 | -0.34 |
| Ncald (neurocalcin delta) | low cell count with doxorubicin only (active) | -2.7 | -1.69 |
| Ntan1 (N-terminal Asn amidase) | high cell count with doxorubicin only | 2.14 | 0 |
| Kctd13 (potassium channel tetramerisation domain containing 13) | no change with or without drug | 0 | -0.34 |
| Uba5 (ubiquitin-like modifier activating enzyme 5) | no change with or without drug | 1.12 | 0.84 |
| Crocc (ciliary rootlet coiled-coil, rootletin) | no change with or without drug | -0.9 | -0.51 |
| Cyp2r1 (cytochrome P450, family 2, subfamily r, polypeptide 1) | no change with or without drug | 0.34 | 0.34 |
| Mst1 (macrophage stimulating 1 (hepatocyte growth factor-like)) | no change with or without drug | 0.56 | -0.51 |
| Trp63 (transformation related protein 63) | no change with or without drug | -0.9 | 1.18 |
| Srpk1 (serine/arginine-rich protein specific kinase 1) | no change with or without drug | 0.45 | 0.67 |
| Dpf2 (double PHD fingers 2) | no change with or without drug | -1.35 | -0.51 |
| Prss45 (serine protease 45) | no change with or without drug | 0.22 | -0.84 |
| Or2ag16 (olfactory receptor family 2 subfamily AG member 16) | no change with or without drug | -0.67 | -0.51 |
| Ctla4 (cytotoxic T-lymphocyte-associated protein 4) | no change with or without drug | 0.67 | -0.51 |
| Abhd2 (abhydrolase domain containing 2) | no change with or without drug | -0.45 | -0.17 |
| Cd244a (CD244 molecule A) | no change with or without drug | 0.9 | -0.51 |
| Kcnip4 (Kv channel interacting protein 4) | no change with or without drug | -0.22 | -1.52 |
| Tmem35a (transmembrane protein 35A) | no change with or without drug | -0.22 | -0.17 |
| Sap30l (SAP30-like) | no change with or without drug | 0.9 | -0.84 |
| Acadsb (acyl-Coenzyme A dehydrogenase, short/branched chain) | no change with or without drug | 1.57 | -1.52 |
| Fbxo17 (F-box protein 17) | no change with or without drug | -1.57 | -0.17 |
| Krt31 (keratin 31) | low cell count without drug only | -1.57 | -3.37 |
| Ccnt1 (cyclin T1) | no change with or without drug | -0.11 | -0.84 |
| Serping1 (serine (or cysteine) peptidase inhibitor, clade G, member 1) | high cell count with and without drug | 2.59 | 2.36 |
| Dennd2c (DENN domain containing 2C) | low cell count without drug only | 0.34 | -6.91 |
| Atp13a5 (ATPase type 13A5) | high cell count with and without drug | 2.59 | 3.71 |
| Mgat4c (MGAT4 family, member C) | no change with or without drug | 0 | 1.35 |
| Chd8 (chromodomain helicase DNA binding protein 8) | no change with or without drug | 0.45 | -0.51 |
